Assay results from PubChem BioAssay AID276 (DTP/NCI, 2004).
The list shows only some results of the screen, not a fair sample: it gathers tests that were run many times, whatever their T/C, doses with no T/C, and many T/C values between a quarter and a half above the control. Further doses and runs are listed elsewhere. T/C is the treated group as % of the vehicle group. Some entries give survivors of the animals treated and no T/C: the source files T/C as zero there, which appears to mark a toxic dose or a test without result, not a measured value. Some doses without a T/C left all or most animals alive at the check, yet need not have been tolerated: survival well below the control is almost never listed, so the zero probably covers shortened survival too. Survivors were counted at the toxicity check, usually on the fifth day, unless a day is given; later deaths do not show. Schedules are NCI's codes, read here as Q, the interval in days (D) or hours (H), X, the number of doses. Some entries hold several experiments; their values stand side by side, smallest first. For survival time, the PubChem record calls one and a half times the control and up active, and a quarter to a half above the control has no call in these data; cut-offs in other NCI protocols can differ. Some T/C values carry the count of animals alive at the toxicity check (mostly the fifth day); where none is given, no animal had died by that day.

System: B6C3F1 mice, Lewis lung carcinoma iv, survival T/C
Assay: NCI In Vivo Anticancer Drug Screen. Data for tumor model Lewis Lung Carcinoma (intravenous) in B6C3F1 mice
Details: T/C endpoint: median survival time, higher T/C = longer survival
Summary of the method: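 T/C ratio derived from survival of compound-treated versus vehicle-treated mice bearing transplantable tumors.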

[1] = dose: 400.0 mg/kg/injection, schedule: Q01DX009 (ip), vehicle: saline
[2] = dose: 300.0 mg/kg/injection, schedule: Q04DX003 (ip), vehicle: saline
[3] = dose: 400.0 mg/kg/injection, schedule: Q01DX009 (ip), vehicle: Klucel (hydroxypropylcellulose) (HPC)
[4] = dose: 400.0 mg/kg/injection, schedule: Q01DX009 (ip), vehicle: saline with Tween-80
[5] = dose: 100.0 mg/kg/injection, schedule: Q01DX009 (ip), vehicle: saline with Tween-80
[6] = dose: 200.0 mg/kg/injection, schedule: Q01DX009 (ip), vehicle: saline with Tween-80
[7] = dose: 8.0 mg/kg/injection, schedule: Q01DX009 (ip), vehicle: Klucel (hydroxypropylcellulose) (HPC)
[8] = dose: 32.0 mg/kg/injection, schedule: Q01DX009 (ip), vehicle: Klucel (hydroxypropylcellulose) (HPC)
[9] = dose: 200.0 mg/kg/injection, schedule: Q01DX009 (ip), vehicle: Klucel (hydroxypropylcellulose) (HPC)
[10] = dose: 12.5 mg/kg/injection, schedule: Q01DX009 (ip), vehicle: saline
[11] = dose: 6.0 mg/kg/injection, schedule: Q01DX009 (ip), vehicle: saline

## CC(C)C(N)C(=O)Nc1nncs1 (configuration not stated)
dose: 90.0 mg/kg/injection, schedule: Q01DX009 (ip), vehicle: suspension in saline
  T/C: 136 % of control [8 of 10 alive]
dose: 160.0 mg/kg/injection, schedule: Q01DX009 (ip), vehicle: suspension in saline
  survivor count: 10 of 10
dose: 200.0 mg/kg/injection, schedule: Q01DX009 (ip), vehicle: saline
  survivor count: 10 of 10
[1]
  survivor count: 8 of 10 and 10 of 10

## O=C1c2ccccc2C(=O)c2c3c(cc(NCCNCCO)c21)N(CCO)CCN3
dose: 400.0 mg/kg/injection, schedule: Q01DX009 (ip), vehicle: DMSO
  survivor count: 8 of 10

## O=c1[nH]c(=O)n(C2CC(O)C(CO)O2)cc1F (configuration not stated)
dose: 147.0 mg/kg/injection, schedule: Q04DX003 (ip), vehicle: saline
  T/C: 131 % of control
dose: 210.0 mg/kg/injection, schedule: Q04DX003 (ip), vehicle: saline
  T/C: 144 % of control
[2]
  T/C: 141 % of control
  survivor count: 8 of 9
dose: 429.0 mg/kg/injection, schedule: Q04DX003 (ip), vehicle: saline
  survivor count: 10 of 10 and 9 of 9

## CN1N=C(N)c2cn(C3OC(COP(=O)(O)O)C(O)C3O)c3ncnc1c23 (configuration not stated)
dose: 12.5 mg/kg/injection, schedule: Q01DX009 (ip), vehicle: water
  survivor count: 10 of 10
dose: 25.0 mg/kg/injection, schedule: Q01DX009 (ip), vehicle: water
  survivor count: 10 of 10
dose: 50.0 mg/kg/injection, schedule: Q01DX009 (ip), vehicle: water
  survivor count: 8 of 10
dose: 100.0 mg/kg/injection, schedule: Q01DX009 (ip), vehicle: water
  survivor count: 7 of 10
dose: 200.0 mg/kg/injection, schedule: Q01DX009 (ip), vehicle: water
  survivor count: 3 of 10

## C[C@]12CCC(=O)C=C1CC[C@@H]1[C@@H]2[C@@H](O)C[C@@]2(C)[C@H]1CC[C@]2(O)C(=O)CO
[3]
  survivor count: 10 of 10

## CCCCOCN(COCCCC)C12CC3CC(CC(C3)C1)C2
[4]
  survivor count: 3 of 10

## COc1cc2c(c(OC)c1OC)-c1ccc(OC)c(=O)cc1[C@@H](NC(=O)CCl)CC2
dose: 0.5 mg/kg/injection, schedule: Q01DX009 (ip), vehicle: saline with Tween-80
  T/C: 129 % of control
dose: 1.0 mg/kg/injection, schedule: Q01DX009 (ip), vehicle: saline with Tween-80
  survivor count: 6 of 10

## COC(OC(CO)C(O)S(=O)(=O)O)C(O)S(=O)(=O)O (configuration not stated)
[1]
  survivor count: 6 of 10

## O=S(=O)(CCl)OCCCl
[5]
  survivor count: 9 of 10
[6]
  survivor count: 0 of 10 and 5 of 10

## C=C(C(=O)O)C(N)C(=O)O (configuration not stated)
[1]
  survivor count: 5 of 10

## O=NN(CCCl)C(=O)NC1CCCCC1
dose: 1.0 mg/kg/injection, schedule: Q01DX009 (ip), vehicle: Klucel (hydroxypropylcellulose) (HPC)
  T/C: 125 % of control
dose: 2.0 mg/kg/injection, schedule: Q01DX009 (ip), vehicle: Klucel (hydroxypropylcellulose) (HPC)
  T/C: 128 % of control
[7]
  T/C: 146 % of control
dose: 16.0 mg/kg/injection, schedule: Q01DX009 (ip), vehicle: Klucel (hydroxypropylcellulose) (HPC)
  T/C: 141 % of control
[8]
  T/C: 129 and 141 % of control [9 of 10 alive]
  survivor count: 6 of 10

## OC1(CSc2ccccc2)CCCCC1
dose: 25.0 mg/kg/injection, schedule: Q01DX009 (ip), vehicle: saline with Tween-80
  T/C: 130 % of control

## Cc1cc(NC(=S)SCc2ccc3c(c2)OCO3)ccc1Cl
[9]
  survivor count: 4 of 10
[3]
  survivor count: 0 of 10

## C[CH2][Sn]([CH2]C)([O]S(C)(=O)=O)[O]S(C)(=O)=O
dose: 0.78 mg/kg/injection, schedule: Q01DX009 (ip), vehicle: saline
  survivor count: 9 of 10
dose: 6.25 mg/kg/injection, schedule: Q01DX009 (ip), vehicle: saline
  survivor count: 9 of 10
[10]
  survivor count: 7 of 10
dose: 25.0 mg/kg/injection, schedule: Q01DX009 (ip), vehicle: saline
  survivor count: 0 of 10

## CNC=O
[1]
  survivor count: 8 of 10
dose: 800.0 mg/kg/injection, schedule: Q01DX009 (ip), vehicle: saline
  survivor count: 6 of 10
dose: 1600.0 mg/kg/injection, schedule: Q01DX009 (ip), vehicle: saline
  survivor count: 7 of 10
dose: 3200.0 mg/kg/injection, schedule: Q01DX009 (ip), vehicle: saline
  survivor count: 0 of 10

## CC[C@H](CC[C@@H](C)C1CC[C@H]2[C@@H]3CC=C4C[C@@H](OP(=O)(N5CC5)N5CC5)CC[C@]4(C)[C@H]3CC[C@]12C)C(C)C (some centres not stated)
[4]
  survivor count: 10 of 10

## C[C@]12C=CC(=O)C=C1CC[C@@H]1[C@@H]2C(=O)C[C@@]2(C)[C@H]1CC[C@]2(O)C(=O)CO
dose: 400.0 mg/kg/injection, schedule: Q01DX009 (ip), vehicle: water
  survivor count: 10 of 10

## CC1(C)CC(=O)C(CSC(=O)c2ccccc2)C(=O)C1
dose: 100.0 mg/kg/injection, schedule: Q01DX009 (ip), vehicle: Klucel (hydroxypropylcellulose) (HPC)
  survivor count: 2 of 10

## O=[N+]([O-])c1ccc(-n2[nH]nnc2=S)cc1
[4]
  survivor count: 8 of 10

## CCCCCCCCCCCCCCCCCC(=O)Nc1ccn(C2OC(CO)C(O)C2O)c(=O)n1 (configuration not stated)
dose: 25.0 mg/kg/injection, schedule: Q01DX009 (ip), vehicle: suspension in saline
  T/C: 129 % of control
dose: 100.0 mg/kg/injection, schedule: Q01DX009 (ip), vehicle: suspension in saline
  survivor count: 10 of 10
dose: 200.0 mg/kg/injection, schedule: Q01DX009 (ip), vehicle: suspension in saline
  survivor count: 10 of 10
dose: 400.0 mg/kg/injection, schedule: Q01DX009 (ip), vehicle: suspension in saline
  survivor count: 10 of 10

## CCCCN(CCCC)C(Cl)=Nc1ccccc1
[9]
  survivor count: 9 of 10

## O=C1C=C2C(=CCOC2O)O1 (configuration not stated)
[11]
  survivor count: 1 of 10
[7]
  survivor count: 0 of 10
dose: 12.0 mg/kg/injection, schedule: Q01DX009 (ip), vehicle: saline
  survivor count: 0 of 10

## CCCN1COC(OCC)C(C)(C)C1 (configuration not stated)
[6]
  survivor count: 2 of 10 and 3 of 10
[4]
  survivor count: 0 of 10

## CNC(=O)n1c(N)nc(-c2ccccc2)c1-c1ccccc1
[5]
  survivor count: 2 of 10

## CC[C@@]1(O)C(=O)OCc2c1cc1n(c2=O)Cc2cc3cc(O)ccc3nc2-1
[11]
  survivor count: 10 of 10

## NC(=O)c1ncn2c(=O)n(CCCl)nnc12
[10]
  T/C: 138 % of control
dose: 50.0 mg/kg/injection, schedule: Q01DX009 (ip), vehicle: saline
  survivor count: 9 of 10

## CC[PH+](CC)CC[S-].CC[PH+](CC)CC[S-].[Au+].[Au+]
dose: 40.0 mg/kg/injection, schedule: Q01DX009 (ip), vehicle: Klucel (hydroxypropylcellulose) (HPC)
  survivor count: 3 of 10
dose: 80.0 mg/kg/injection, schedule: Q01DX009 (ip), vehicle: Klucel (hydroxypropylcellulose) (HPC)
  survivor count: 0 of 10

## O=C1N[C@@H]2C(=C[C@H](O)[C@@H](O)[C@H]2O)c2cc3c(c(O)c21)OCO3
dose: 5.0 mg/kg/injection, schedule: Q01DX009 (ip), vehicle: saline with Tween-80
  survivor count: 8 of 10 and 9 of 9
dose: 10.0 mg/kg/injection, schedule: Q01DX009 (ip), vehicle: saline with Tween-80
  survivor count: 0 of 10 and 8 of 10

## Cc1c(N)nc([C@H](CC(N)=O)NC[C@H](N)C(N)=O)nc1C(=O)N[C@H](C(=O)N[C@H](C)[C@@H](O)CC(=O)N[C@H](C(=O)NC(O[C@@H]1O[C@@H](C)[C@@H](N)[C@@H](O)[C@H]1O)C(O)c1nc(-c2nc(C(=O)NCCCCN)cs2)cs1)[C@@H](C)O)[C@@H](O[C@@H]1O[C@@H](CO)[C@@H](O)[C@H](O)[C@@H]1O[C@H]1O[C@H](CO)[C@@H](O)[C@H](OC(N)=O)[C@@H]1O)c1c[nH]cn1 (some centres not stated)
dose: 4.0 mg/kg/injection, schedule: Q01DX009 (ip), vehicle: saline
  T/C: 138 % of control
dose: 16.0 mg/kg/injection, schedule: Q01DX009 (ip), vehicle: saline
  survivor count: 10 of 10
dose: 32.0 mg/kg/injection, schedule: Q01DX009 (ip), vehicle: saline
  survivor count: 10 of 10
dose: 64.0 mg/kg/injection, schedule: Q01DX009 (ip), vehicle: saline
  survivor count: 7 of 10

## COC(=O)Nc1nc2ccc(SC)cc2c(=O)[nH]1
[3]
  survivor count: 6 of 10
